# Literature values as cited in patent publication US20230146593A1, “METHOD FOR TREATMENT AND PROPHYLAXIS OF CRS IN PATIENTS COMPRISING A COMBINATION OF BISPECIFIC ANTIBODIES BINDING TO CDS X CANCER CELL AND TNF ALPHA OR IL-6 INHIBITOR” (AMGEN INC., priority 2020, published 2023).
# Some results were stated once for a whole list of compounds, not compound by compound.
# Tested on: TNF
# Details: patients with cancer, after BiTE administration; cited from earlier work
substance,measurement,value
blinatumomab,peak TNF concentrations,30 to 60 µg/mL
